Tests used:
[1] = general procedure: Fmoc solid-phase peptide synthesis; Rink Amide MBHA or Rink Amide ChemMatrix resin pre-loaded with protected alpha-ketoacid; 2-chlorotrityl polystyrene resi; HCTU; HATU; details: whole synthesis
[2] = general procedure: Fmoc solid-phase peptide synthesis; 2-Chlorotrityl resin pre-loaded with Fmoc-Thr-OH; HCTU; HATU; details: whole synthesis, analytical HPLC and ESI-HRMS, scale 0.34 mmol

Row | Substance | isolated yield ([1]; peptide synthesis, resin cleavage and purification) [%] | isolated mass ([1]; scale 0.34 mmol) [mg] | isolated yield ([1]; synthesis, cleavage and purification, scale 0.34 mmol) [%] | final HPLC purity [2] [%]
1 | Opr-IL2 (42-69) photoprotected-Leu-α-ketoacid | 16 |  |  | 
2 | Opr-IL2 (105-133) |  | 108.5 | 9 | >98
